Laboratory results reported in the supplement of paper PMC12578635.
± gives the standard deviation of the averaged measurements. The list shows a part of the results. Repeats are few or missing, and single values can be far off.

These compounds were tested on RAW 264.7 macrophages infected with S. aureus JE2-lux (assay: host macrophage viability (CellTiter-Fluor) relative to DMSO vehicle; higher = more viable host cells). Conditions: 10 µM; treatment time 4 h; gentamicin 50 µg/ml.
COCCn1/c(=N/C(=O)c2cc3ccccc3oc2=O)sc2cc(NC(C)=O)ccc21 gave a host macrophage viability of 127%. Work on CCOC(=O)CC1C(=O)NCCN1Cc1ccc(OC)c(OC)c1 (configuration not stated) yielded a host macrophage viability of 96.4%. Cc1c(-c2ccccc2)n[nH]c1C(=O)Nc1ccc(Oc2cccnc2)cc1 showed a host macrophage viability of 76.4%. Cc1nnc2ccc(C(=O)NCc3ccc(F)cc3)cn12 showed a host macrophage viability of 121%. Compound N#CC1=C(N)OC2=C(C(=O)CCC2)C1c1ccc(-c2ccc(Br)cc2)o1 (configuration not stated) has a host macrophage viability of 100%. Compound Cc1sc2nc(C)n3c(=O)n(Cn4nnc5ccccc54)nc3c2c1C has a host macrophage viability of 95.6%. With O=C(NNc1nc2c(F)cc(F)cc2s1)c1ccc(F)cc1 the host macrophage viability was 117 ± 13%. CCC(Sc1nncn1C)C(=O)Nc1nnc(-c2ccc(OC)cc2OC)s1 (configuration not stated) showed a host macrophage viability of 116 ± 11%. O=C(NC1CCN(Cc2cccc(F)c2)CC1)c1cnn(-c2ccc(F)cc2)c1 gave a host macrophage viability of 104%. Cc1nc(SCC(=O)NCc2ccco2)c2c3c(sc2n1)CCCC3 gave a host macrophage viability of 119 ± 18%. Work on CC(c1ccccc1)n1cnc2c(cnc3nc4ccccc4n32)c1=O (configuration not stated) yielded a host macrophage viability of 139%. CCCCc1ccc(-n2c(C)c(C)n3c4c(=O)[nH]c(=O)n(C)c4nc23)cc1 showed a host macrophage viability of 105%. Cc1nc2c(C)cccn2c(=O)c1NC(=O)COc1ccc2ccccc2c1 gave a host macrophage viability of 132%. Cc1ccc(NC(=O)CC2SC(=N)NC2=O)cc1 (configuration not stated) gave a host macrophage viability of 106%. O=C(Nc1nnc(-c2ccncc2)o1)c1ccccc1I showed a host macrophage viability of 123%. COc1ccccc1Cn1cc(C(=O)c2ccccc2)c(=O)c2cc3c(cc21)OCO3 gave a host macrophage viability of 117%. With O=C(COc1ccc(Br)cc1)N/N=C/c1ccco1 the host macrophage viability was 130%. Work on CCOc1ccc2cc(C#N)c(SCC(=O)Nc3c[nH]c(=O)[nH]c3=O)nc2c1 yielded a host macrophage viability of 116%. In the case of COc1ccc(C(=O)N(Cc2cccnc2)c2nc3c(C)cc(Cl)cc3s2)cc1OC, the host macrophage viability is reported as 94.4%. Compound O=c1[nH]cc(S(=O)(=O)N2CCCc3ccccc32)c(=O)[nH]1 has a host macrophage viability of 109%. CCn1c(C)cc2cc(NC(=O)COc3ncnc4ccccc34)ccc21 gave a host macrophage viability of 114%. Compound COc1cccc2s/c(=N/C(=S)NC(=O)c3ccc(C)cc3)n(C)c12 has a host macrophage viability of 112 ± 4.4%. O=C(NCc1cccs1)c1ccc(S(=O)(=O)c2ccccc2)nc1 gave a host macrophage viability of 117%. COc1ccc2cc(CCNC(=O)c3ccc(OC)c(OC)c3)c(=O)[nH]c2c1 was tested, and the host macrophage viability was 130%. CCOC(=O)c1c(NC(=O)CSc2nc(N)cc(=O)[nH]2)sc2c1CCC2 gave a host macrophage viability of 109%. For CN(c1ccccc1)N1C(=O)/C(=C2/C(=O)Nc3ccc(Br)cc32)SC1=S, the host macrophage viability was 105%. For Clc1ccc(Cl)c2sc(N3CCCC3)nc12, the host macrophage viability was 109 ± 5.5%. C=CCn1c(CSc2nc(N)cc(N)n2)n[nH]c1=S showed a host macrophage viability of 108%. For Cc1ccnc(SCc2cc(=O)c(OC(=O)c3ccc(S(=O)(=O)N4CCCC4)cc3)co2)n1, the host macrophage viability was 118%. CCOc1cc2c(cc1OCC)C(C)N(C(=O)c1ccc3nc(C)[nH]c3c1)CC2 (configuration not stated) gave a host macrophage viability of 136%. Work on CCCCN(Cc1ccccc1)c1ncnc2[nH]cnc12 yielded a host macrophage viability of 113%. With Cc1cc2ccccc2n2c(=O)n(CC(C)NC(=O)c3ccnn3C)nc12 (configuration not stated) the host macrophage viability was 117%. For CCOC(=O)CC(NC(=O)Nc1c(-c2ccncc2)[nH]c2ccc(F)cc12)c1ccccc1 (configuration not stated), the host macrophage viability was 139%. Compound O=C(COc1cccc2ccc(N3CCN(c4ccccc4)CC3)nc12)Nc1cccc(F)c1 has a host macrophage viability of 135%. CCCCOc1ccccc1C1CC(=O)Nc2c1c(C)nn2-c1nc2ccccc2s1 (configuration not stated) gave a host macrophage viability of 105%. COc1cccc(NC(=O)c2cc3c(=O)n4ccccc4nc3n(CC(C)C)c2=N)c1 gave a host macrophage viability of 134%. For COc1ccccc1OCC(=O)Nc1noc(-c2cccc(C)c2)n1, the host macrophage viability was 106%. Work on CCOc1ccc(C(=O)Nc2c(N)nc(SCC(=O)N(CC)CC)[nH]c2=O)cc1 yielded a host macrophage viability of 104%. CCOc1ccccc1NC(=O)CSc1nc2cc3c(cc2cc1C#N)OCO3 showed a host macrophage viability of 149%. Cc1ccc(S(=O)(=O)Nc2ccccc2C(=O)Nc2sc3c(c2C#N)CCC3)cc1 gave a host macrophage viability of 136%. For Cc1ccc(-n2nnc(C(=O)N3CCSCC3)c2-c2ccncc2)cc1C, the host macrophage viability was 114%. CC1CN(C)CCC1CCc1ccc(NC(=O)c2n[nH]c3c2CCC3)cc1 (configuration not stated) gave a host macrophage viability of 126%. For Cc1ccc(-c2noc(-c3cccnc3N(C)Cc3ccccc3)n2)cc1, the host macrophage viability was 127%. COc1ccc(N2CCN(c3ncnc4c3c(C)c(C)n4-c3ccccc3)CC2)cc1 gave a host macrophage viability of 110%. Cc1ccc(-c2nc3n(CC(=O)N4CCCCC4C)c(C)c(Cc4ccccc4)c(=O)n3n2)cc1 (configuration not stated) gave a host macrophage viability of 122%. Cc1cc(SCc2cccc3ccccc23)nc(=O)[nH]1 gave a host macrophage viability of 120%. N#Cc1cc2cc3c(cc2nc1SCC(=O)N(c1ccccc1)c1ccccc1)OCO3 showed a host macrophage viability of 123%. COc1ccccc1N1CCN(S(=O)(=O)c2c[nH]c(=O)[nH]c2=O)CC1 showed a host macrophage viability of 124%. Cn1c(=O)oc2cc(NS(=O)(=O)c3ccc4c(c3)CCC(=O)N4)ccc21 showed a host macrophage viability of 113%. In the case of O=C(Cn1c(=O)c2cccnc2n(-c2ccccc2)c1=O)Nc1ccc(Br)cc1, the host macrophage viability is reported as 119%. For Cc1cc(CNC(=O)c2c(-c3ccncc3)noc2C)c2[nH]c(C)c(C)c2c1, the host macrophage viability was 142%. CNS(=O)(=O)c1cc(-c2cc(C(=O)N3CCN(c4ccc(OC)cc4)CC3)n[nH]2)ccc1OC gave a host macrophage viability of 98.2%.
